Data: paper PMC4849146
Results are given in words; binding and its absence hold for the method and conditions named. In cells and extracts the contact can be indirect. Some entries that bind do so weakly or less than the wild type.

The chains behind the UniProt entries cited, without tags or fusion partners.
UniProt Q9Y572: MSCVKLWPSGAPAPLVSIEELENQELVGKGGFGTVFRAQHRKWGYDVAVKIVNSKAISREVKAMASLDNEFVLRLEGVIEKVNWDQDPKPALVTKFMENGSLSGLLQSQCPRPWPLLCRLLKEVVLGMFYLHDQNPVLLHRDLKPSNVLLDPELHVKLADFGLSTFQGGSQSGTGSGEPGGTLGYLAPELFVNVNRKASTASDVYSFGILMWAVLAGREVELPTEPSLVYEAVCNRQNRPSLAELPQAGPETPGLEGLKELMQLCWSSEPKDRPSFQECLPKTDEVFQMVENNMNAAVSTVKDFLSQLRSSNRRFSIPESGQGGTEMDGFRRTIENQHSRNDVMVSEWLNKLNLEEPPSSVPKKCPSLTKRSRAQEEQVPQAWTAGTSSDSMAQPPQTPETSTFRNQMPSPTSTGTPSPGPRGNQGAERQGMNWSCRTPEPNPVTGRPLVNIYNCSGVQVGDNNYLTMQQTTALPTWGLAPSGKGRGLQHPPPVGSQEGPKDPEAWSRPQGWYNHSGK
UniProt Q13546: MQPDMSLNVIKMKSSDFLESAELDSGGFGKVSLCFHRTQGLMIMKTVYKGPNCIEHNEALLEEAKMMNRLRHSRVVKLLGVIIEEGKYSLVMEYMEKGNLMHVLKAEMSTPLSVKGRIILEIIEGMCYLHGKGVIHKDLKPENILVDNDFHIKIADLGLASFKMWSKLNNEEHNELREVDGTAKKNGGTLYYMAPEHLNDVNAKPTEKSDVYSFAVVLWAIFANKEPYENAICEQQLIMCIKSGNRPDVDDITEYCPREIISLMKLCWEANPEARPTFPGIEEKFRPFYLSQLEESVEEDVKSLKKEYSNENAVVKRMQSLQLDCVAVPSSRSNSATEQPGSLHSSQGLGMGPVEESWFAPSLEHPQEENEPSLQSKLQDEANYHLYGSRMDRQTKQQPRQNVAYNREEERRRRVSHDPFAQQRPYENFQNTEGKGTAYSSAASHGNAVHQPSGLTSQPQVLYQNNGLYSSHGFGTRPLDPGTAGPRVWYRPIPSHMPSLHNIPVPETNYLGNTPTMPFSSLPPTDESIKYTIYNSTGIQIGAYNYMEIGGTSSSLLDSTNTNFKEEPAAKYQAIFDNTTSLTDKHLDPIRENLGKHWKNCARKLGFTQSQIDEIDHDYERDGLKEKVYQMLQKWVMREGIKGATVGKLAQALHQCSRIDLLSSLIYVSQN

Target: endogenous RIP3 (HT29) (human (endogenous in HT29)) (UniProt Q9Y572)
Experiment: co-IP; endogenous proteins, HT29 whole-cell extracts; cells untreated or stimulated with TNF alone or TSZ (TNF, Smac mimetic, z-VAD) for 8 h; immunoprecipitation with anti-RIP3 or anti-IgG, western blot

endogenous RIP1 (HT29) (from UniProt Q13546 1-671)
binding: binds
